Source: publication PMC7819943, “Rice protein-binding microarrays: a tool to detect cis-acting elements near promoter regions in rice”
The list shows a part of the results.

Protein sequences, listed by entry. Tags and fused reporters are not part of them.
UniProt Q0JBA9, entry or part of it: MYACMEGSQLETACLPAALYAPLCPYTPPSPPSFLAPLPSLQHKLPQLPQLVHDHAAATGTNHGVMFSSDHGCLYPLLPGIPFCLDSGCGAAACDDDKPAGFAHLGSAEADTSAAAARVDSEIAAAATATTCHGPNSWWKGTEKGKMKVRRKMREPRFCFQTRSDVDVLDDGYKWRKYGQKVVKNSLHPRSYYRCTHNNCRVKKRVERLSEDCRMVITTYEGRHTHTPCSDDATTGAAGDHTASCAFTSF

biological target: OsWRKY34 (Oryza sativa, UniProt Q0JBA9 1-250); assay: protein-binding microarray (RPBM); PBS, 2% BSA, 51.3 ng/ul salmon testes DNA, 50 uM zinc acetate, 200 nM TF, 25 C, 1 h; high values mean tight binding; conditions: protein: recombinant; tags: N-terminal polyhistidine and DsRed monomer fusion (pET32a); label: CyDye5-dUTP incorporated in the synthesized complementary strand; 3' TTTTT single-stranded linker to array surface; dsDNA, one strand shown
How it was run: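 Binding signal is reported as fluorescence intensity per feature (arbitrary units) from an Axon 4000B scanner. Incubation used 200 nM of each Ni–NTA-purified, N-terminally polyhistidine- and DsRed-fused transcription factor from E. coli BL21-CodonPlus on a double-stranded custom Agilent array for 1 h at 25 °C, with 50 µM zinc acetate in the buffer, followed by washing.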

Sequence	binding signal
TACTATTTCAGATTCTATTATCCCAACGCCCAACCTGCACCGGAGTCACCTAGTGCAG	8080 fluorescence intensity (a.u.)
CTTAACCGCCGTAGTACAGCTTTTGTTGACATTTTCTTTCCGGAGTCACCTAGTGCAG	8190 fluorescence intensity (a.u.)
TTATACATTTACTTTGCTTTTTTTTTTAAAAAAAAACACTCGGAGTCACCTAGTGCAG	9190 fluorescence intensity (a.u.)
AGTACCTCCGGAAGATGTTTAATGGGGTTTTTTCTCTTTTCGGAGTCACCTAGTGCAG	13700 fluorescence intensity (a.u.)
TGGGGATGTCTATGTATCATATTTTATATTCTTAAATTCACGGAGTCACCTAGTGCAG	10600 fluorescence intensity (a.u.)
TGCTCGTGGTGAATTTCGTGGTGTTTTTTTTTTACTGGTTCGGAGTCACCTAGTGCAG	10400 fluorescence intensity (a.u.)
CAGCTTGAACTTAGAGGTGGGTTGCTTAGCCTGGTTTTACCGGAGTCACCTAGTGCAG	9580 fluorescence intensity (a.u.)
AGTTATCTTTTGTGTTGGTATTGGAAGCACGCGTATAATTCGGAGTCACCTAGTGCAG	9930 fluorescence intensity (a.u.)
CTCCTTTTTTTTTTGTCAACGGTAGCACACACCTCAACGCCGGAGTCACCTAGTGCAG	9170 fluorescence intensity (a.u.)
GCGGTTCATTAGTGCGTGATTAATTAAGTATTAGCTATTTCGGAGTCACCTAGTGCAG	8420 fluorescence intensity (a.u.)
ACACACCGCGGGTTGGAGGAGGAGGAGGAGGAGGTAGGGGCGGAGTCACCTAGTGCAG	10500 fluorescence intensity (a.u.)
AACCGACCCACCTGACCTCCTGTCCTCGTCTCCACCACTTCGGAGTCACCTAGTGCAG	9420 fluorescence intensity (a.u.)
GTCGATCTGCTACTCCGATCCGCCGGGTCCGGGGCCCCTCCGGAGTCACCTAGTGCAG	9440 fluorescence intensity (a.u.)
GTAGTTTTGTACTATTCACGTTCAACGTTACGTCTTATTTCGGAGTCACCTAGTGCAG	9380 fluorescence intensity (a.u.)
CCGCTCGTAAAATGTCCCTTACACGAATCGCCACCATGCACGGAGTCACCTAGTGCAG	9350 fluorescence intensity (a.u.)
GCTTGGGTCTTGGGTCTTGGGTCCTTGGGGCTCTATATATCGGAGTCACCTAGTGCAG	15200 fluorescence intensity (a.u.)
CGCCGCCTTCCATCCCCGCCGCCACCACCGCCAATCGCCACGGAGTCACCTAGTGCAG	8770 fluorescence intensity (a.u.)
CTATTCTTGTGCATTCTGTTTTTTATCGTACATGCTACAGCGGAGTCACCTAGTGCAG	11800 fluorescence intensity (a.u.)
CAGCATTTCAGTTCGCTTTAGTTAGTACTACCACCTGCATCGGAGTCACCTAGTGCAG	9280 fluorescence intensity (a.u.)
GTCCGATCCGCTCATCTCGTCGTCGTCTTCGCCGCCGCCGCGGAGTCACCTAGTGCAG	8880 fluorescence intensity (a.u.)
CGACTTCTCGTGAAATTTTGCTGTCCATTTAATTATTTGTCGGAGTCACCTAGTGCAG	11300 fluorescence intensity (a.u.)

Sequence	binding signal
TTATCCAATTATATCTTTTAGTGTGTGTGTGTGTATATATCGGAGTCACCTAGTGCAG	8110 fluorescence intensity (a.u.)
ACTTTTATCGCGCCGTTGATCCCGCATCGGGCGGTCCAGACGGAGTCACCTAGTGCAG	8420 fluorescence intensity (a.u.)
GACCGTCTTTGTATTTTCGGATCGCACCGTGCATTTCTCGCGGAGTCACCTAGTGCAG	10700 fluorescence intensity (a.u.)
TCCTCTCCTTTCTGCTTTTCTCTCGCCTTTTATTTCTTCTCGGAGTCACCTAGTGCAG	8270 fluorescence intensity (a.u.)
TTTACTTGTTGTATTTATATTTGTGCAATTTACATTTCTACGGAGTCACCTAGTGCAG	8810 fluorescence intensity (a.u.)
TTGCTCTTGGTCATTTTTATTAAGTCCCCGTTATAATTTTCGGAGTCACCTAGTGCAG	9890 fluorescence intensity (a.u.)
GGTGTAATTAGTATGGTGTTTTAATCGATACATGTATTGCCGGAGTCACCTAGTGCAG	10400 fluorescence intensity (a.u.)
CACATGCCTTTCAAGTGATCCACACGCCCTATCGGATCGACGGAGTCACCTAGTGCAG	9350 fluorescence intensity (a.u.)
TTACCTAATTAGTGTGTAATTTACACCCGTCTATTATTATCGGAGTCACCTAGTGCAG	8920 fluorescence intensity (a.u.)
ACTCTTATTGTTCAAATGAAAATGCTAGGGGTATAACTGCCGGAGTCACCTAGTGCAG	8340 fluorescence intensity (a.u.)
TGGGGTTTTGATGGAAGTACAATTCTAGCTATGTTCTTGACGGAGTCACCTAGTGCAG	10600 fluorescence intensity (a.u.)
TTCTATGGCCGTTGATGTAGGGGTGCTTGTGTGGATGATGCGGAGTCACCTAGTGCAG	11400 fluorescence intensity (a.u.)
CGCCGTCTTCAACTTGCTGGTCTACCCGCTCGCTGCCATCCGGAGTCACCTAGTGCAG	9480 fluorescence intensity (a.u.)
GGGAAGGGGTTTTTGGCGTCACTCGCTTCTCTCTCTCCCCCGGAGTCACCTAGTGCAG	10400 fluorescence intensity (a.u.)
AGGGAGGGTTTTTTTTGTTAGGGCGGCAAGGGGCCTCCATCGGAGTCACCTAGTGCAG	15900 fluorescence intensity (a.u.)
CACTAATTGTTGATTTGCTTTGCTTTTGCTGTTTTTACAACGGAGTCACCTAGTGCAG	12700 fluorescence intensity (a.u.)
GTTTCTGTTTTGCTAGATCTAGATGCTTTGCATGTTTGTTCGGAGTCACCTAGTGCAG	13300 fluorescence intensity (a.u.)
CATATTAGTATATCTTGTTGATTTTTTTTATTTTTTTCATCGGAGTCACCTAGTGCAG	8140 fluorescence intensity (a.u.)
ACTTGTGGGCCCCATGTACTTTTTTTTTTTTTTTTGCTGACGGAGTCACCTAGTGCAG	8840 fluorescence intensity (a.u.)
ACATGCTTTTTAACCAAACCCCGTGTCCAATATACACAGTCGGAGTCACCTAGTGCAG	8900 fluorescence intensity (a.u.)
GATCCTATCATTTTCAACGATGTTAAATCGTCACAGGCTTCGGAGTCACCTAGTGCAG	8310 fluorescence intensity (a.u.)

6 consecutive entries out of the list so far, quoted:
Sequence	binding signal
TTACCTAATTAGTGTGTAATTTACACCCGTCTATTATTATCGGAGTCACCTAGTGCAG	8920 fluorescence intensity (a.u.)
ACTCTTATTGTTCAAATGAAAATGCTAGGGGTATAACTGCCGGAGTCACCTAGTGCAG	8340 fluorescence intensity (a.u.)
TGGGGTTTTGATGGAAGTACAATTCTAGCTATGTTCTTGACGGAGTCACCTAGTGCAG	10600 fluorescence intensity (a.u.)
TTCTATGGCCGTTGATGTAGGGGTGCTTGTGTGGATGATGCGGAGTCACCTAGTGCAG	11400 fluorescence intensity (a.u.)
CGCCGTCTTCAACTTGCTGGTCTACCCGCTCGCTGCCATCCGGAGTCACCTAGTGCAG	9480 fluorescence intensity (a.u.)
GGGAAGGGGTTTTTGGCGTCACTCGCTTCTCTCTCTCCCCCGGAGTCACCTAGTGCAG	10400 fluorescence intensity (a.u.)

The list goes on:

Sequence	binding signal
GGGGATGCAGTCGGCGGGCGGCGGGCTGCTTTAAGGAAGACGGAGTCACCTAGTGCAG	12600 fluorescence intensity (a.u.)
TACCGTCGGTTGACTATGTGTTGACCGTTAACTCTCAAGTCGGAGTCACCTAGTGCAG	12500 fluorescence intensity (a.u.)
CCTAGCGCCGGTCCTCCTATTTTTCCATGCGGTTCCACTTCGGAGTCACCTAGTGCAG	8050 fluorescence intensity (a.u.)
CATTACTTTTTATAACTTTGCACTACGATACAGTAGCAAACGGAGTCACCTAGTGCAG	8320 fluorescence intensity (a.u.)
ATCTCCATTGCTCTCCCATATGGTGTCTTCCCCTGCTTTTCGGAGTCACCTAGTGCAG	8920 fluorescence intensity (a.u.)
CTTCCCACGCCAACGCCTCCGCTCCCGCTCGTACCACGCGCGGAGTCACCTAGTGCAG	8090 fluorescence intensity (a.u.)
ATTCTAAATTTCTATTATTTCCTAATTGTGTTTCTATATGCGGAGTCACCTAGTGCAG	9600 fluorescence intensity (a.u.)
TCTTATATTTTTCTTATTTCTATGTTCACTCTCGGTATATCGGAGTCACCTAGTGCAG	11000 fluorescence intensity (a.u.)
AACTTCCAACTTTTCCATCGTATCAAAACTTTCCTACATACGGAGTCACCTAGTGCAG	9740 fluorescence intensity (a.u.)
AAACTAATTTTCTGTGACACTTCCAAGTGCATACCGGAGTCGGAGTCACCTAGTGCAG	8660 fluorescence intensity (a.u.)
GTTTATGTGTCACATCCTCCAAAATCACTTATATTATATTCGGAGTCACCTAGTGCAG	10500 fluorescence intensity (a.u.)
TCAGCATTGTTTAGCTTTACGCCCACCTGGATCACAATGTCGGAGTCACCTAGTGCAG	8160 fluorescence intensity (a.u.)
CGAACCCGACTCCCTCCACAATTCCGCTAGTCCGAGTCAACGGAGTCACCTAGTGCAG	8440 fluorescence intensity (a.u.)
GACCTCTGCCAGCGGTACAAACATTTCCGTTGTTCAATAACGGAGTCACCTAGTGCAG	8620 fluorescence intensity (a.u.)
CAGGCAGAGTAGCTCTTTTTGTTTTTGTTGGGACCTAATACGGAGTCACCTAGTGCAG	12800 fluorescence intensity (a.u.)
GTTTTGACCCCATATGTTTTTCCTTGACCCTGAACACTTCCGGAGTCACCTAGTGCAG	8960 fluorescence intensity (a.u.)
CTACAAGCCTTCAACCACATGACTAGAGGTGTTTTTTTTTCGGAGTCACCTAGTGCAG	8170 fluorescence intensity (a.u.)
AATGCCATCTATTACTACTCCCTCGCACCTCATGTGTTTGCGGAGTCACCTAGTGCAG	10800 fluorescence intensity (a.u.)
ATAAGTCGTTTGACTCTTTTTTAATTAAACTTCTTTTAAGCGGAGTCACCTAGTGCAG	8790 fluorescence intensity (a.u.)
CGCCACCCACACTGCGCAAGCGCAACGCATATGCCAAATCCGGAGTCACCTAGTGCAG	9390 fluorescence intensity (a.u.)
CTCTCAGCCGGTCTATCAATTCCCCTTTCTGATACAATAACGGAGTCACCTAGTGCAG	9570 fluorescence intensity (a.u.)

Sequence	binding signal
ACCCCACCACTATCATCGTGCCTGCATCTGCATGTGTGTACGGAGTCACCTAGTGCAG	8240 fluorescence intensity (a.u.)
GGGCGACTTCTTTATCAACTACGAACCACAACCATTGCAGCGGAGTCACCTAGTGCAG	8300 fluorescence intensity (a.u.)
TACCACCACTGTTCGTTTCGTTTGTTGGGTTTCGGTCATCCGGAGTCACCTAGTGCAG	8360 fluorescence intensity (a.u.)
TGAGTCTTTCTTCTTTGCCATATGGACTTAATATATCTTCCGGAGTCACCTAGTGCAG	10800 fluorescence intensity (a.u.)
TATTTTCCAACATTTGGTTTTAAATGCTAACGATACAAATCGGAGTCACCTAGTGCAG	8140 fluorescence intensity (a.u.)
TCAATTTTTATGTGCTTGTGTGGTACGTGTCGGTGGTCTACGGAGTCACCTAGTGCAG	10700 fluorescence intensity (a.u.)
TCCATTTGTTTGCATCTTTTTCAGTCACACTCAACTTTATCGGAGTCACCTAGTGCAG	12100 fluorescence intensity (a.u.)
CTCAATTAATCATGCGCTAATAGCTCACATCGTTTTACGTCGGAGTCACCTAGTGCAG	10500 fluorescence intensity (a.u.)
GTGTGTTTTTCTGCCATTTTTCGCCTTAGGTCTTCGCAATCGGAGTCACCTAGTGCAG	12300 fluorescence intensity (a.u.)
CAATGCCCATCTTGCCCATCGAGCTATATCACCCGAGGTTCGGAGTCACCTAGTGCAG	8980 fluorescence intensity (a.u.)
GTTGACCCGCAGTTCCCCTTTGTTTTCCACGTGTTTCTTCCGGAGTCACCTAGTGCAG	9740 fluorescence intensity (a.u.)
CAGTTTTCTCTTGGCACCAACGCGCGGTTATTTATGTTGACGGAGTCACCTAGTGCAG	8590 fluorescence intensity (a.u.)
GCACGACGCATACATATCTCACGCGCCCTTTTTATCTGCTCGGAGTCACCTAGTGCAG	12900 fluorescence intensity (a.u.)
CACATGTTATTTCTATCTCATTTTGCATGAAACATTTAATCGGAGTCACCTAGTGCAG	9840 fluorescence intensity (a.u.)
ACCCACGCCGCCGCCGCCGTCTCTTCCCTCCCTTCTCCGCCGGAGTCACCTAGTGCAG	8450 fluorescence intensity (a.u.)
GGGAGAAGGTGATGGACACGTGCCTGAAGCGCGAGCGAGTCGGAGTCACCTAGTGCAG	8080 fluorescence intensity (a.u.)
TTGCCGCCACCTCTCCCTACAGCTGTTCGACTACGCCATTCGGAGTCACCTAGTGCAG	14900 fluorescence intensity (a.u.)
TTGAATTTTCAGTTTTCTTGTGCGTGTTTCCTTGTCATTTCGGAGTCACCTAGTGCAG	9140 fluorescence intensity (a.u.)
ATACTGTACACCGGCGCTTCTCACCGACAGATCGGGCCCACGGAGTCACCTAGTGCAG	9090 fluorescence intensity (a.u.)
ATCCAACTAACACACGCTGCTTCCTTTGCTTTCCTATTCTCGGAGTCACCTAGTGCAG	9920 fluorescence intensity (a.u.)
AATTTTAATTAATTATGTGCTAATGATTTTCTCCTTTTTGCGGAGTCACCTAGTGCAG	8240 fluorescence intensity (a.u.)
